Laboratory results from US4772547 (dated 1988).

Test: general procedure: Boc solid-phase peptide synthesis; benzhydrylamine (BHA) resin; symmetric anhydride procedure
Conditions: whole synthesis, scale of the general procedure 1.0 mmol, 0.7 mmol

| Substance | isolated yield [%] |
| --- | --- |
| HTLV-III env (487-511)-Cys-NH2 | 12 |
| HTLV-III env Cys-(500-511)-NH2 | 13 |
